Counter-ions that a name gives are not always drawn. Some of the results follow. The calls rarely recur for the same compound in another form.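 In K562 cells expressing nanoluciferase-fused kinases, luminescence was recorded at 4 h intervals between 2 and 18 h, normalized as percent of control with DMSO at 100% and a positive control at 0%. A significant (2 sigma) signal drop marks a time point as decreased. The authors' rule for a hit is not shown and takes in more than the number of time points.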
target: PIK4CB (UniProt Q9UBF8); assay: kinase-Nluc reporter destabilization hit call (1 = scored as downregulated) (binary); higher = compound decreases kinase abundance; conditions: K562; 2-18 h

Amino acid sequences for entries named in this document (tags omitted). A change or cut given only in a name is not applied to a line headed by its entry.
UniProt Q9UBF8: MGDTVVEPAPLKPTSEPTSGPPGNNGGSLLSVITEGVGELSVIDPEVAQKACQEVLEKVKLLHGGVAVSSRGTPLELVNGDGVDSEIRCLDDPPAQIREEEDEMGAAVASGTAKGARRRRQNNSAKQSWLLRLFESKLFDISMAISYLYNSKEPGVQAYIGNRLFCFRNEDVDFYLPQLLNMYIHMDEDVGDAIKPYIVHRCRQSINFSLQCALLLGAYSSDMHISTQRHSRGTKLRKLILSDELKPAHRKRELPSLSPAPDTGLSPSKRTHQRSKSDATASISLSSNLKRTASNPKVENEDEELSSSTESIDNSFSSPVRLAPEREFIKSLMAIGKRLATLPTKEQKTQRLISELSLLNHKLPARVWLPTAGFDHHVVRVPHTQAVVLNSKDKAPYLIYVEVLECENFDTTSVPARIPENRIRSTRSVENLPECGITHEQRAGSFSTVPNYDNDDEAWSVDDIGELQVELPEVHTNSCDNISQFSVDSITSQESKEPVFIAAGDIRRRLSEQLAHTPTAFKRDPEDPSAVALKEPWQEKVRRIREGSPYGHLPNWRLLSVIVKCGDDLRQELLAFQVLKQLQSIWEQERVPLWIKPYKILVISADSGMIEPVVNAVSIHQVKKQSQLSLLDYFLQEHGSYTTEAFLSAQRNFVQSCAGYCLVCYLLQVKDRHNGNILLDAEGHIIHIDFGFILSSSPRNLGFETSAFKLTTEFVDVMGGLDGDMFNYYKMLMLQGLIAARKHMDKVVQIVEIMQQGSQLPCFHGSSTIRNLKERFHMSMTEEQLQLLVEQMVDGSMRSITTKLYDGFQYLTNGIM
UniProt P53350, whole entry: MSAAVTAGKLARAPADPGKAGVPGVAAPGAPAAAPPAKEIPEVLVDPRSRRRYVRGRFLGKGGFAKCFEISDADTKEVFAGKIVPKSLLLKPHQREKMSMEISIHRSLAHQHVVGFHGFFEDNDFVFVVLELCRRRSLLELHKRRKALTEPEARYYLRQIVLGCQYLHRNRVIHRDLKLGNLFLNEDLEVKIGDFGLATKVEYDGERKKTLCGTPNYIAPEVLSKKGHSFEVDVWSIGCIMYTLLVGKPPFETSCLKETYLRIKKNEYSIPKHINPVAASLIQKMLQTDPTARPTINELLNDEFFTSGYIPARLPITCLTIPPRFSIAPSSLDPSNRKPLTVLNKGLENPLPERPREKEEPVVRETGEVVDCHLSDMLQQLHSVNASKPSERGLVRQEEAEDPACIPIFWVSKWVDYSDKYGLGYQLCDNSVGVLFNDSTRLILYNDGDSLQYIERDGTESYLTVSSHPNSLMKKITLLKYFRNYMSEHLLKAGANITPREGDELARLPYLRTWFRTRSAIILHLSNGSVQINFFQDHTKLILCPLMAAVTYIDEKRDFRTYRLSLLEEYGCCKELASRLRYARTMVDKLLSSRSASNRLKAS

Row | SMILES | kinase-Nluc reporter destabilization hit call
1 | Cc1cc(F)c(Nc2ncnc3cc(OCc4ccccc4)ccc23)cc1O (10 µM) | inactive: 0
2 | CNCCOc1ccccc1C(C)(C)Nc1nccn(-c2cc(C(=O)NC3CC3)ccc2C)c1=O [p38α inhibitor 2] (10 µM) | inactive: 0
3 | CCn1c(-c2nonc2N)nc2c(C#CCO)ncc(OCCCN)c21 [AKT Kinase Inhibitor] (10 µM) | inactive: 0
4 | NC(=O)c1nc(-c2c(F)cccc2Cl)oc1Nc1ccc(C(=O)N2CCOCC2)cc1 (10 µM) | inactive: 0
5 | O=C(NCc1cccc(O)c1)c1cc2cc(F)ccc2[nH]1 (10 µM) | inactive: 0
6 | Cc1nc(Nc2ncc(C(=O)Nc3c(C)cccc3Cl)s2)cc(N2CCN(C(=O)CCCCCCC(=O)N[C@H](C(=O)N3C[C@H](O)C[C@H]3C(=O)NCc3ccc(-c4scnc4C)cc3)C(C)(C)C)CC2)n1 (2.5 µM) | inactive: 0
7 | Cc1cccc(-c2[nH]c(C(C)(C)C)nc2-c2ccc3c(c2)OCO3)n1 (2.5 µM) | inactive: 0
8 | Cc1cccc(Cn2nc(C)c3c(NC(=O)c4csc5c(N)ncnc45)cccc32)n1 (10 µM) | inactive: 0
9 | CC[C@@H]1CN(C(=O)NCC(F)(F)F)C[C@@H]1c1cnc2cnc3[nH]ccc3n12 [Upadacitinib] (10 µM) | inactive: 0
10 | CNS(=O)(=O)C[C@H]1CC[C@H](N(C)c2[nH]cnc3nccc2-3)CC1 [Oclacitinib (maleate)] (10 µM) | inactive: 0
11 | COc1cc(-c2cnc(N)c(-c3ccc(NC(=O)c4cn(CC5CCOCC5)cc(-c5ccc(C)cn5)c4=O)cc3F)c2)ccc1OC[C@H]1COCCO1 [DS-1205b (free base)] (10 µM) | inactive: 0

target: PLK1 (UniProt P53350); assay: as above; conditions: K562; 2-18 h

Row | SMILES | kinase-Nluc reporter destabilization hit call
12 | C=CC(=O)N1CCC[C@@H](n2c(=O)n(-c3ccc(Oc4ccccc4)cc3)c3c(N)nccc32)C1 [Tolebrutinib] (10 µM) | inactive: 0
13 | C[C@]1(O)C[C@@](N)(c2ccc(-c3nc4n(c3-c3ccccc3)COc3ccncc3-4)cc2)C1 [TAS-117 (hydrochloride)] (10 µM) | inactive: 0
14 | CCOC(=O)C1=C[C@]2(CC)CCCN3CCc4c(n1c1ccccc41)[C@@H]32 [Vinpocetine] (10 µM) | inactive: 0
15 | CC(C)(C)NS(=O)(=O)c1cncc(-c2cc(F)c3nc(N)nn3c2)c1 (10 µM) | inactive: 0
16 | CC(C)(C)c1ccc(C(=O)Nc2cn3cc(-n4ccnc4)ccc3n2)cc1 (10 µM) | inactive: 0
17 | Cc1nc(NC(=O)N2CCC[C@H]2C(N)=O)sc1-c1csc(C(C)(C)C)n1 (10 µM) | inactive: 0
18 | N#Cc1cn([C@@H]2O[C@H](CO)[C@@H](O)[C@H]2O)c2nc[nH]c(=O)c12 [Jaspamycin] (10 µM) | inactive: 0
19 | Cc1ccc(-c2csc(Cn3nc(CC4OCCCO4)c4ccccc4c3=O)n2)cc1 (10 µM) | inactive: 0
20 | CNC(=O)c1c(C)oc2cc(Oc3ncnc4cc(OC)c(OC)cc34)ccc12 [Fruquintinib] (10 µM) | inactive: 0
21 | O=S(=O)(N=Cc1c(O)ccc2ccccc12)c1cccs1 (10 µM) | inactive: 0
22 | NC(=O)c1cccc2c(N[C@H](CN3CCC3)c3ccc(Cl)c(C(F)(F)F)c3)ncnc12 (10 µM) | inactive: 0
23 | CN1CCC(c2ccccc2CC(C)(C)Nc2nc(N3CCOCC3)nc(-n3c(S(C)(=O)=O)nc4ccccc43)n2)CC1 (10 µM) | inactive: 0
24 | O=c1ccc2cc(O)c(O)cc2o1 [Esculetin] (10 µM) | inactive: 0
25 | O=C(Nc1nc2cccc(-c3ccc(CN4CCS(=O)(=O)CC4)cc3)n2n1)C1CC1 [Filgotinib] (2.5 µM) | inactive: 0
26 | CC(C)(O)c1cc2nc(-c3cnc(N)nc3)nc(N3CCOCC3)c2s1 (2.5 µM) | inactive: 0
27 | Cn1cc(-c2ccc3ncc(Cc4ccc5ncccc5c4)n3n2)cn1 (10 µM) | inactive: 0
28 | CC(=O)c1cc(O)ccc1O [2,5-Dihydroxyacetophenone] (10 µM) | inactive: 0
29 | COc1ccc(COc2cc3oc(=O)c4cc(C(C)O)ccc4c3cc2OC)cc1 (stereo unspecified) [Palomid 529] (2.5 µM) | inactive: 0
30 | O=C(CC(c1ccccc1)C(C(=O)O)C(=O)O)c1ccc(C(F)(F)F)cc1 (stereo unspecified) (10 µM) | inactive: 0
31 | CC(C)[C@H](CO)Nc1nc(Nc2ccc(C(=O)O)c(Cl)c2)c2ncn(C(C)C)c2n1 [Purvalanol B] (10 µM) | inactive: 0

Two neighbouring compounds from above:
Row | SMILES | kinase-Nluc reporter destabilization hit call
22 | NC(=O)c1cccc2c(N[C@H](CN3CCC3)c3ccc(Cl)c(C(F)(F)F)c3)ncnc12 (10 µM) | inactive: 0
23 | CN1CCC(c2ccccc2CC(C)(C)Nc2nc(N3CCOCC3)nc(-n3c(S(C)(=O)=O)nc4ccccc43)n2)CC1 (10 µM) | inactive: 0
